Data published in the supplement of paper PMC10849652.
The list shows a part of the results.

By UniProt entry, the sequences of proteins in these tests, tags left out. Where a name states a change or a piece, a line headed by the entry shows the natural chain unless it says otherwise.
UniProt O60333: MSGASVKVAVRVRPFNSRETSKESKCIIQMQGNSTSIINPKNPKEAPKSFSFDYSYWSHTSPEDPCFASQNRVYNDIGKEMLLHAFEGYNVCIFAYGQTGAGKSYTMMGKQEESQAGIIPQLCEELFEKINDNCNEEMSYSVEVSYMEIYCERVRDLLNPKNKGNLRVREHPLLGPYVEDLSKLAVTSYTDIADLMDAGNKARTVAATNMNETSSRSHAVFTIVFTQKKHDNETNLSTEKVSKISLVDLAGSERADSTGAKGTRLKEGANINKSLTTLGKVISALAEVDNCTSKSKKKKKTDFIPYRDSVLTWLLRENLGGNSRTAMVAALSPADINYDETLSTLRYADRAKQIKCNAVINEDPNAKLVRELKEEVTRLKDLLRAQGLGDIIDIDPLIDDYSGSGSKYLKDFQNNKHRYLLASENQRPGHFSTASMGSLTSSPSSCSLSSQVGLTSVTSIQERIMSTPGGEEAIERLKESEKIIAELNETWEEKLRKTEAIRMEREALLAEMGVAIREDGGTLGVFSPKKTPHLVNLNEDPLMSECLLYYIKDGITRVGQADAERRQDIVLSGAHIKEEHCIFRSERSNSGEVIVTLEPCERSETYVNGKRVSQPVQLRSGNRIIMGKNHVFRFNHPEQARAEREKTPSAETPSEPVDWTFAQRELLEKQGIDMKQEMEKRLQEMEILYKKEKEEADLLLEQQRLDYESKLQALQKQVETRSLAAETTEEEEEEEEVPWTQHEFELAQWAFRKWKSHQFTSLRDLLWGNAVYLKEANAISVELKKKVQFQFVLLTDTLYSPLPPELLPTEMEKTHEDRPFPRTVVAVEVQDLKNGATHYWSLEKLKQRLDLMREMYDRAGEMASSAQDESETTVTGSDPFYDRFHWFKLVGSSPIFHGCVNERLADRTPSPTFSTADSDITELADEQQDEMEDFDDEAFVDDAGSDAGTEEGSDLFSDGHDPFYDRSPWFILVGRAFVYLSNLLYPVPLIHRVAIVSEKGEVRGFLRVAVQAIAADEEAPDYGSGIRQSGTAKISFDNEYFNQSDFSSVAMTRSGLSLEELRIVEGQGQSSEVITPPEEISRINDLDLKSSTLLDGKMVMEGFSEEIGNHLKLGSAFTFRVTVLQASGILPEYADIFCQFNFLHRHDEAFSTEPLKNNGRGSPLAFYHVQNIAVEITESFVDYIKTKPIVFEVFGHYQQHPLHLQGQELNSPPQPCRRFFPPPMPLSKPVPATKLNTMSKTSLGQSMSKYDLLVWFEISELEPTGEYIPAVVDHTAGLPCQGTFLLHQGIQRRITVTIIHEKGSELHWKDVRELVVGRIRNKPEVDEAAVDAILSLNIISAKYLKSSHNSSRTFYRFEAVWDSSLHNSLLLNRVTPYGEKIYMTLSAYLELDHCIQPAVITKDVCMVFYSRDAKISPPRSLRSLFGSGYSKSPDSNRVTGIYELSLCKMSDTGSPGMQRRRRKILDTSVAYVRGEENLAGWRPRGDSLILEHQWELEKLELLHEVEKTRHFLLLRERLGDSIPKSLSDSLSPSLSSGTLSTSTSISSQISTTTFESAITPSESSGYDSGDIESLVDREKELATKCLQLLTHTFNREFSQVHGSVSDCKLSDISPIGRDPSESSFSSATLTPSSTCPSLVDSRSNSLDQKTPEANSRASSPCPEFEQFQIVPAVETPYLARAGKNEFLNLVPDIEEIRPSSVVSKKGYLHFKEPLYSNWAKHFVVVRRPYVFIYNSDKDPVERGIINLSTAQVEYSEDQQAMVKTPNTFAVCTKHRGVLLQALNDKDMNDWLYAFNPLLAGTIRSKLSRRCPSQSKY
UniProt P52732: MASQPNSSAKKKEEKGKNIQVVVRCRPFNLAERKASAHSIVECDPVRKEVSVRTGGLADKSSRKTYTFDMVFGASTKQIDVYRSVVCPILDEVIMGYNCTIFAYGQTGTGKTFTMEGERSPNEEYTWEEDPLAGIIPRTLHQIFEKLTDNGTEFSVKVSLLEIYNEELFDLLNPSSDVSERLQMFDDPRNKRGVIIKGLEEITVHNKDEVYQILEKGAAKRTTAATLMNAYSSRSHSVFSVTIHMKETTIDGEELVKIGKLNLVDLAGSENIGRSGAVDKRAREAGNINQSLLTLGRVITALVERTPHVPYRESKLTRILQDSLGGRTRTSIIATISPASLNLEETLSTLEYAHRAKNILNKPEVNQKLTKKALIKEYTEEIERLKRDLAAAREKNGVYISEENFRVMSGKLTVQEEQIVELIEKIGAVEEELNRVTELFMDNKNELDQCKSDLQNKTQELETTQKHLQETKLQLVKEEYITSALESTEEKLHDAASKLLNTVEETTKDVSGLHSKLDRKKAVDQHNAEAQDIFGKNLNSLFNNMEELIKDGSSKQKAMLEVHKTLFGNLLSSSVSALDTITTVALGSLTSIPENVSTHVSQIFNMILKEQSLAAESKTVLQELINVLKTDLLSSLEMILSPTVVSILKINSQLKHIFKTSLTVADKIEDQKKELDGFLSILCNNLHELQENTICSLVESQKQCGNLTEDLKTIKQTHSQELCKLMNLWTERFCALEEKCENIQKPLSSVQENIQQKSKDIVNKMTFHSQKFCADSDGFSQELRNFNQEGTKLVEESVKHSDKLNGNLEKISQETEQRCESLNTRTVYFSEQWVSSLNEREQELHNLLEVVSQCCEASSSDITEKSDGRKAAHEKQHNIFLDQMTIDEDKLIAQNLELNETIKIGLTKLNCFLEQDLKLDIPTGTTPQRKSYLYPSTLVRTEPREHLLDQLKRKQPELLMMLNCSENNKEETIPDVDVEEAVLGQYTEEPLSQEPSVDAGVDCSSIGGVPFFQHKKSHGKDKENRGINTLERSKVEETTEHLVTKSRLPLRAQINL
UniProt Q8IVT5: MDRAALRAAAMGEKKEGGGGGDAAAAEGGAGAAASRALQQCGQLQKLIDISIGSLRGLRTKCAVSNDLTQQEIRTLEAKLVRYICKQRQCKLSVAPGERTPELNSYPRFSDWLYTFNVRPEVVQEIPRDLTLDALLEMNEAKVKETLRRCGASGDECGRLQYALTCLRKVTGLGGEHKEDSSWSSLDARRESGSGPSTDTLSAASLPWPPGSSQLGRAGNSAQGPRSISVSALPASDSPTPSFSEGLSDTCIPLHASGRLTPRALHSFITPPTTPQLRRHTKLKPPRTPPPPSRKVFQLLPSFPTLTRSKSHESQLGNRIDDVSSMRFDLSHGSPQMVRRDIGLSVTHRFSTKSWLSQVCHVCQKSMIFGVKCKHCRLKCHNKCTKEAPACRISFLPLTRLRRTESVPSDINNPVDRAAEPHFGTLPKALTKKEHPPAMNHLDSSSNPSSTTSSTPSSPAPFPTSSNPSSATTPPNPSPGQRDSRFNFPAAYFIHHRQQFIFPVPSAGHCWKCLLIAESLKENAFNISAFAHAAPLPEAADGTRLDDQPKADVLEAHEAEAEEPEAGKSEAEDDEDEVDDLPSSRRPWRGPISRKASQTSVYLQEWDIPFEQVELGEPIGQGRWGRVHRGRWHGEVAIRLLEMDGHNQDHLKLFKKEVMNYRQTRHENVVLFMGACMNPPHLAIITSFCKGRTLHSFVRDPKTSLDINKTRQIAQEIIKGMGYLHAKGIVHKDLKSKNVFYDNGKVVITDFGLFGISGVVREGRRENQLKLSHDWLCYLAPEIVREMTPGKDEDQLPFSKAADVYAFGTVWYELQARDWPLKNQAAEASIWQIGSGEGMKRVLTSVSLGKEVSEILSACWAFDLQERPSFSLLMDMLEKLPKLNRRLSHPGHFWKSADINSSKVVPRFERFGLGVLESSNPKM
UniProt Q9Y496, whole entry, looked up: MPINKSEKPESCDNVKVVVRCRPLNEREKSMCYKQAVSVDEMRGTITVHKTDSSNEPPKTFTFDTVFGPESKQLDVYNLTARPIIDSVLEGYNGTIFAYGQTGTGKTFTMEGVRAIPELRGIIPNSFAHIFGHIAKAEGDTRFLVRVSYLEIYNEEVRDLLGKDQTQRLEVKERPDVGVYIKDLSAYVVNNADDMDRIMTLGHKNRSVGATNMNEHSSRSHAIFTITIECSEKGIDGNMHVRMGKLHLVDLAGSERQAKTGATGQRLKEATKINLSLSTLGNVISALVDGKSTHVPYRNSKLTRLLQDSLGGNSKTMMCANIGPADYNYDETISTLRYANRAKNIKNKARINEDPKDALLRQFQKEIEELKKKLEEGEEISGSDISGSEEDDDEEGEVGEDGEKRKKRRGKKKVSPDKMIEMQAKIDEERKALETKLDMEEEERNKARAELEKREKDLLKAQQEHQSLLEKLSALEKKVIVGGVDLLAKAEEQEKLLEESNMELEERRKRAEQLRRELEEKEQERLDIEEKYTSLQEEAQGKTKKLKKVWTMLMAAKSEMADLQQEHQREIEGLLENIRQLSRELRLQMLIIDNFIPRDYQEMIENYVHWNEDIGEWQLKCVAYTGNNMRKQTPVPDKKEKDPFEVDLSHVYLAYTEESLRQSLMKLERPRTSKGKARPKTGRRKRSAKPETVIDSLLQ
UniProt P17275: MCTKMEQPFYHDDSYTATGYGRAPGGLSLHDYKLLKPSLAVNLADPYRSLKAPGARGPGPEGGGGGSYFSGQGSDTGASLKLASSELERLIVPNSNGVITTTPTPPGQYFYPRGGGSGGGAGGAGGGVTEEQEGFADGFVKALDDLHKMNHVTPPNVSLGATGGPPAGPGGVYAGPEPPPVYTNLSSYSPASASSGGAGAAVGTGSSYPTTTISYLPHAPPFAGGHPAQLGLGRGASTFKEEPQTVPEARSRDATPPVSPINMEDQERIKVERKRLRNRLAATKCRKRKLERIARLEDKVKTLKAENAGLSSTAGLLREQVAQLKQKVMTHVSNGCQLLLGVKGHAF
UniProt O95251, whole entry, looked up: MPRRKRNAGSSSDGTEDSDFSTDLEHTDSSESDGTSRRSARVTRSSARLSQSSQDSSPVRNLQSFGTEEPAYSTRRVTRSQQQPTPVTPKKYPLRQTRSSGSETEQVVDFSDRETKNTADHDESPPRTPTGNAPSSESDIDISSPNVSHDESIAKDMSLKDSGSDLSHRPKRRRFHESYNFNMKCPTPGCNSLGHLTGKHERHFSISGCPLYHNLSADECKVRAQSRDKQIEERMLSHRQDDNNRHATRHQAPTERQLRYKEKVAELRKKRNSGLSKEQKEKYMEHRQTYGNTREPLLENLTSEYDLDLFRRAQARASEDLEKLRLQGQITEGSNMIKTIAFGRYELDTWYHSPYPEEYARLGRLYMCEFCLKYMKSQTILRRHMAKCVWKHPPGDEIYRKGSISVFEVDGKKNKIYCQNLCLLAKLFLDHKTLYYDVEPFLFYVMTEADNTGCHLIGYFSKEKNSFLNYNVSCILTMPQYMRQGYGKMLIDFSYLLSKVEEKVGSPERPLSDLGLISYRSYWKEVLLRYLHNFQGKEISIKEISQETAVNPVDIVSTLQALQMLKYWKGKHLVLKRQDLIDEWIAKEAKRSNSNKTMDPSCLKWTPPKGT
UniProt Q14145, whole entry, looked up: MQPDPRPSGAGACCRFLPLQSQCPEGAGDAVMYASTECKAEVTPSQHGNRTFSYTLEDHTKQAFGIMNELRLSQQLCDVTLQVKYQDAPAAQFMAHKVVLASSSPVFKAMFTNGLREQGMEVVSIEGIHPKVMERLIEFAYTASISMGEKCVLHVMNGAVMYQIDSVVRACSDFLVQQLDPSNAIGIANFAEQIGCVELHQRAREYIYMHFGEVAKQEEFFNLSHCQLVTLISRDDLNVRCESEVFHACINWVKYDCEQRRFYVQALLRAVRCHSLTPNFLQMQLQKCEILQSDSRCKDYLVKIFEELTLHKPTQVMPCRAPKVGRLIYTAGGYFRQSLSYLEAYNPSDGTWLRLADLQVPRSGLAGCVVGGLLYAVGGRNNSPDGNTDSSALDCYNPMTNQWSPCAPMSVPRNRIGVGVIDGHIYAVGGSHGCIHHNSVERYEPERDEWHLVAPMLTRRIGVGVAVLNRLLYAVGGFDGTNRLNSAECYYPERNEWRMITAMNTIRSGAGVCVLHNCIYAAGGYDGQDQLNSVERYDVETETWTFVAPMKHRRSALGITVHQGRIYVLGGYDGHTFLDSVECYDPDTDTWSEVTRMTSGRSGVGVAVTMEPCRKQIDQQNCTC
UniProt Q9BXK1: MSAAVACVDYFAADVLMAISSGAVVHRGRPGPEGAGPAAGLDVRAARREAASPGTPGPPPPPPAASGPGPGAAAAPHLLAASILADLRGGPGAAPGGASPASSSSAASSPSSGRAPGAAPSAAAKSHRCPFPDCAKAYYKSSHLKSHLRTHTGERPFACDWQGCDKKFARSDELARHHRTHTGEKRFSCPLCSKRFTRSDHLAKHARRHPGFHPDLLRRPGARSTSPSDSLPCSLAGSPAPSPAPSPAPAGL
UniProt Q9H910: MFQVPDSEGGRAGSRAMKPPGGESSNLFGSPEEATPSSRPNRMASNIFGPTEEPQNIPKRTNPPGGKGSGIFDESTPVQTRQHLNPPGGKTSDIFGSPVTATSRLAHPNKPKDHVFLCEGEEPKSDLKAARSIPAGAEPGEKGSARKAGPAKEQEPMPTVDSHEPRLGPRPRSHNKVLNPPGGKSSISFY

Compound: CNc1nc(-c2ccc3c(N)n[nH]c3c2)cc(N2C[C@@H](C(=O)NC3CCCCC3)CC[C@H]2C)n1
Experiment: log2 fold change, soluble protein after heating vs DMSO (PISA); higher = thermal stabilisation; K562 cells, 10 uM, 30 min; active = over 0.2 and 3.5 SD of the protein, either way, in both replicates (recomputed)
How it was run: (§1)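 Soluble protein was defined as the supernatant after 21,000xg for 90 min. It came from K562 cells at 2×10^6 cells/mL given 10 μM compound for 30 min, heated in aliquots for 3 min across 48°C-58°C, pooled, and extracted in PBS with 0.5% NP-40 at 4°C, and was quantified by TMTpro 16plex LC-MS/MS with equalised channel sums. Thermal stability against control samples, from duplicates, is reported as log2 fold change.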

log2 fold change, inactive:
KIF1B isoform 4 (UniProt O60333) -0.097
KIF11 (UniProt P52732) 0.088
JMJD6 isoform 3 (UniProt Q6NYC1) -0.016

Compound: COC(=O)N[C@@H](C)CNc1nccc(-c2cn(C(C)C)nc2-c2cc(Cl)cc(NS(C)(=O)=O)c2F)n1 [encorafenib]
Experiment: as above
How it was run: as §1

log2 fold change, inactive:
KSR1 (UniProt Q8IVT5) 0.081
KIF3A (UniProt Q9Y496) 0.003
KPNB1 (UniProt Q14974) 0.201
JUNB (UniProt P17275) 0.107
KCNN4 (UniProt O15554) 0.061
KLHL18 (UniProt O94889) 0.019
KNOP1 (UniProt Q1ED39) -0.108
KIFBP (UniProt Q96EK5) 0.049
KIF13B (UniProt Q9NQT8) 0.049
KCNK5 (UniProt O95279) 0.017
KPNA1 (UniProt P52294) 0.197
KIFC3 isoform 6 (UniProt Q9BVG8) -0.17
KIAA1755 (UniProt Q5JYT7) -0.013
KAT7 (UniProt O95251) -0.178
KATNBL1 (UniProt Q9H079) 0.072
KIF14 (UniProt Q15058) 0.209
KBTBD4 isoform 2 (UniProt Q9NVX7) -0.076
KHDC4 (UniProt Q7Z7F0) 0.008
KNTC1 (UniProt P50748) 0.077
KIF3B (UniProt O15066) 0.034
KLC2 (UniProt Q9H0B6) 0.036
KRTCAP2 isoform 2 (UniProt Q8N6L1) 0.038
KIZ (UniProt Q2M2Z5) -0.038
KAT6B (UniProt Q8WYB5) 0.058
KIF26A (UniProt Q9ULI4) -0.064
KLF1 (UniProt Q13351) 0.013
KNG1 (UniProt P01042) -0.005
KEAP1 (UniProt Q14145) 0.059
KLF16 (UniProt Q9BXK1) 0.041
KIF1B isoform 4 (UniProt O60333) 0.023
KIF11 (UniProt P52732) 0.174
JMJD6 isoform 3 (UniProt Q6NYC1) 0.026
JPT2 isoform 2 (UniProt Q9H910) -0.082

Compound: COC(=O)[C@H](CCSC)NC(=O)C1=C(C=C(C=C1)NC[C@H](CS)N)C2=CC=CC=C2
Experiment: as above
How it was run: as §1

log2 fold change, inactive:
KSR1 (UniProt Q8IVT5) 0.012
KIF3A (UniProt Q9Y496) 0.005
KPNB1 (UniProt Q14974) -0.063
JUNB (UniProt P17275) 0.046
KCNN4 (UniProt O15554) 0.014
KLHL18 (UniProt O94889) -0.05
KNOP1 (UniProt Q1ED39) 0.052
KIFBP (UniProt Q96EK5) -0.134
KPNA1 (UniProt P52294) 0
KIFC3 isoform 6 (UniProt Q9BVG8) 0.099
KIAA1755 (UniProt Q5JYT7) -0.087
KAT7 (UniProt O95251) -0.099
KATNBL1 (UniProt Q9H079) 0.003
KIF14 (UniProt Q15058) 0.047
KBTBD4 isoform 2 (UniProt Q9NVX7) 0.01
KHDC4 (UniProt Q7Z7F0) -0.023
KNTC1 (UniProt P50748) -0.041
KIF3B (UniProt O15066) -0.043
KLC2 (UniProt Q9H0B6) -0.051
KRTCAP2 isoform 2 (UniProt Q8N6L1) 0.089
KAT6B (UniProt Q8WYB5) 0.009
KLF1 (UniProt Q13351) -0.002
KNG1 (UniProt P01042) 0.104
KEAP1 (UniProt Q14145) -0.003
KLF16 (UniProt Q9BXK1) 0.212
KIF1B isoform 4 (UniProt O60333) -0.016
KIF11 (UniProt P52732) -0.055
JMJD6 isoform 3 (UniProt Q6NYC1) 0.035
JPT2 isoform 2 (UniProt Q9H910) -0.055
